Reference: publication PMC3514159
No constants are given. Whether binding was seen depends on the method and setting. Some results given as binding are weak or reduced against the parent protein; the word gives no strength.

By UniProt entry, the sequences of proteins in these tests, tags left out.
UniProt Q96G97: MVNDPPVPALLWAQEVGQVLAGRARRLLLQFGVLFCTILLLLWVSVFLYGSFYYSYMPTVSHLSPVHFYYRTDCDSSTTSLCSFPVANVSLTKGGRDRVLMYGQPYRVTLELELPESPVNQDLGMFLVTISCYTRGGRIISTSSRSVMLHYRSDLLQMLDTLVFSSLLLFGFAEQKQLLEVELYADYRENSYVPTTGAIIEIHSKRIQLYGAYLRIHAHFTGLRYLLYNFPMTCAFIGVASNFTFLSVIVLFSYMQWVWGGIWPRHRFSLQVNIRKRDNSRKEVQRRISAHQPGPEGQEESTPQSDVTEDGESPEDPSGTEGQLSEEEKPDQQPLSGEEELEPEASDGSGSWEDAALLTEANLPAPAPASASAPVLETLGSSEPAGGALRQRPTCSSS
UniProt P28799: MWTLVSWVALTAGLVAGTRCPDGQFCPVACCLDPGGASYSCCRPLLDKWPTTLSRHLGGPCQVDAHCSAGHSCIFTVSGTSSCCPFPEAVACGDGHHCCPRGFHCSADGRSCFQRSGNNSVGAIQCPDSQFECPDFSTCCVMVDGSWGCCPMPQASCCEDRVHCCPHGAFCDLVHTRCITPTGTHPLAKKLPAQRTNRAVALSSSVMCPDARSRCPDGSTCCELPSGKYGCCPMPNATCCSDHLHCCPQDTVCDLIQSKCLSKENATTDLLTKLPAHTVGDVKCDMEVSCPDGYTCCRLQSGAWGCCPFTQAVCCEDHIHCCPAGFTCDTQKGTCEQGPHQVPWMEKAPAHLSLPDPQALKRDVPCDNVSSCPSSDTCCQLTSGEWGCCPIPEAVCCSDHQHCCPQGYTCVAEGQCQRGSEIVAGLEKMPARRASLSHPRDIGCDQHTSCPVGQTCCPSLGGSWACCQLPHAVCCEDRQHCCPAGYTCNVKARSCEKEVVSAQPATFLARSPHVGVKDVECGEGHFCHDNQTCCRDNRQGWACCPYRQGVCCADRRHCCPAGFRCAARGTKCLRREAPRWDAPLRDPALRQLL
UniProt P09022: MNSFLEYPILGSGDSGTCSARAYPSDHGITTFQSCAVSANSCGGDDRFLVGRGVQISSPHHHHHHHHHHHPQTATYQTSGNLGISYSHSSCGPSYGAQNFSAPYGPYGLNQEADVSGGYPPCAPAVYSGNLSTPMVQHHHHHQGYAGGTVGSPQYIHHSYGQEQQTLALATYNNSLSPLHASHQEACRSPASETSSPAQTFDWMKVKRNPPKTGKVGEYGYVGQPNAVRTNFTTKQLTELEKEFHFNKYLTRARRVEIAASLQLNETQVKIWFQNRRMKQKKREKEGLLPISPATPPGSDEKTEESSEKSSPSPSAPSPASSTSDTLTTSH

Key:
Test in all cases: two-hybrid; AD-Hoxa1 (Gal4 activation domain) in MATa Y8800 mated with the DB-hORF library in MATα Y8930; 30°C; selection on Sc-L-T-H + 1 mM 3AT, retest on Sc-L-T-H, Sc-L-T-A and Sc-L-T-H-A+3AT
[1] = molecular target: T1, phospholipid scramblase 4 (human) (UniProt Q9NRQ2)
T1 sequence: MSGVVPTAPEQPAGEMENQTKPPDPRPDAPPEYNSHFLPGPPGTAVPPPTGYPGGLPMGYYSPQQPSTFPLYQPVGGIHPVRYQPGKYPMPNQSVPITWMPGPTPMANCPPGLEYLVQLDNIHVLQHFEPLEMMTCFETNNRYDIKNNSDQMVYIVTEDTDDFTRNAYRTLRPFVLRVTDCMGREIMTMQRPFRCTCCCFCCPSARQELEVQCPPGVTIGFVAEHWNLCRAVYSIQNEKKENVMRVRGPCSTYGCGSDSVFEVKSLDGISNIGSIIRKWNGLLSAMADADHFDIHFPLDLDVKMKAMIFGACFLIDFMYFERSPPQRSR

dickkopf-like 1 (human) = molecular target: T2, dickkopf-like 1 (human) (UniProt Q9UK85)
T2 sequence: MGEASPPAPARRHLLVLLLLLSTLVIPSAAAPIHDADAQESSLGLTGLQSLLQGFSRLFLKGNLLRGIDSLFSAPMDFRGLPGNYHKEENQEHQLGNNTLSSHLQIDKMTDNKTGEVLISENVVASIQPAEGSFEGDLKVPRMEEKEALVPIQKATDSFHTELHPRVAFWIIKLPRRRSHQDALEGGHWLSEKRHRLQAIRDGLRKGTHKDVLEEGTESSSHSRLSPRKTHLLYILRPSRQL

keratin 81 (human) = molecular target: T3, keratin 81 (human) (UniProt Q14533)
T3 sequence: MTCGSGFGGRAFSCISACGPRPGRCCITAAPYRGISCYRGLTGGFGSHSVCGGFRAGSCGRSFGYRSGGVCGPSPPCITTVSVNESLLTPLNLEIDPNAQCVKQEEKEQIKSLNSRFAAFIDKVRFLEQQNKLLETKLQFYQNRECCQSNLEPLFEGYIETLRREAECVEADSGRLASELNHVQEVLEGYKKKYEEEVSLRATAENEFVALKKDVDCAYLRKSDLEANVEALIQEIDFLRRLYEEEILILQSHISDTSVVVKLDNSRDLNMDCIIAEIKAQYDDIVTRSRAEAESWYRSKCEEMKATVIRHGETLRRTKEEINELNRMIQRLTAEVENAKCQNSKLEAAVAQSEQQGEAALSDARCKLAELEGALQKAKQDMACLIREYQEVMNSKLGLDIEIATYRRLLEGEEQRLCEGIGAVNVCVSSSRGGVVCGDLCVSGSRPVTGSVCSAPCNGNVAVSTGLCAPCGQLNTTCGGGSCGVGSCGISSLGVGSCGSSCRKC

[2] = molecular target: Berardinelli-Seip congenital lipodystrophy 2 (human) (UniProt Q96G97)
[3] = molecular target: T4, RAB33A (member RAS oncogene family) (human) (UniProt Q14088)
T4 sequence: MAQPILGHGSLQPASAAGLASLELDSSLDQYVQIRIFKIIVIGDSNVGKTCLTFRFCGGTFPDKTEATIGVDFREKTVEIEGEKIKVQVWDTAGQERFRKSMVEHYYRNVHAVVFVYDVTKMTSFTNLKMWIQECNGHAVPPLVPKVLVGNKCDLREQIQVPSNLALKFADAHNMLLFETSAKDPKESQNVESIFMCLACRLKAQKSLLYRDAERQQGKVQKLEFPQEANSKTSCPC

[4] = molecular target: T5, family with sequence similarity 108, member A1 (human) (UniProt Q96GS6)
T5 sequence: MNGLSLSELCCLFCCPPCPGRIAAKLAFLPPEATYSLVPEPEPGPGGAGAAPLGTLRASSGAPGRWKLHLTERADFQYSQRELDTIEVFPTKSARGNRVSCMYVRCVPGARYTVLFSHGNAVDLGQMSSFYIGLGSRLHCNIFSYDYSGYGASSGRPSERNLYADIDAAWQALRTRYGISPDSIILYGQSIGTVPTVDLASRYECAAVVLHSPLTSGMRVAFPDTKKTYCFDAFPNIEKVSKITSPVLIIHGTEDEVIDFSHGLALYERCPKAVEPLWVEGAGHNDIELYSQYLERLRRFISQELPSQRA

granulin (human) = granulin (human) (UniProt P28799)

Measured: binding

Hoxa1 (from UniProt P09022 1-331)
binds: [1] | dickkopf-like 1 (human) | keratin 81 (human) | [2] | [3] | [4] | granulin (human)
